Assay results: PubChem BioAssay AID2551 (National Center for Advancing Translational Sciences (NCATS), 2010)
Among all 310,000 compounds or so, about 17,000 (5.5%) were called active. The inconclusive results got no clear call from the source; some entries with a clear call stand among them for comparison. The call rests on the fitted dose curve; in most records, active means well fitted inhibition curve with a large enough effect; inconclusive means small, poorly fitted or top-dose-only effect, or effect the other way; inactive means no such curve, though single readings can be large or run the other way. Potencies of inconclusive entries are doubtful fits and often do not repeat.

Sequences of proteins named here, by UniProt entry; tags and fusion partners are left off. A change or cut given only in a name is not applied to a line headed by its entry.
UniProt P51450: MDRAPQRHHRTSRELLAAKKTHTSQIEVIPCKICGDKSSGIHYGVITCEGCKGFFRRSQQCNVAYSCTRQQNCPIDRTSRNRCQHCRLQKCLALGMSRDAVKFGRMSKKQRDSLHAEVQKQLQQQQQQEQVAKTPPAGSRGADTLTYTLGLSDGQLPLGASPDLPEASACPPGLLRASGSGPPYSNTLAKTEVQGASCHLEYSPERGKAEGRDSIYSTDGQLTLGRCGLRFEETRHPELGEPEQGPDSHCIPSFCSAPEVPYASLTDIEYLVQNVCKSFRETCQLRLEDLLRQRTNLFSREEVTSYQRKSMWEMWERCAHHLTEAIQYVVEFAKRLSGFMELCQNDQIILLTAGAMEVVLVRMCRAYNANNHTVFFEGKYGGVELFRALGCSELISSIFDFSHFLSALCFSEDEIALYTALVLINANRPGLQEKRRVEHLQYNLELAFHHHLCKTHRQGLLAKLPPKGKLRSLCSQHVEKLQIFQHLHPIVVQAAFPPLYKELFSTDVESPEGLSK

target: Nuclear receptor ROR-gamma (Mus musculus) (UniProt P51450); assay: qHTS for inhibitors of ROR gamma transcriptional activity; settings: Drosophila S2 Gal4-RORgamma UAS-luciferase reporter, 20 h; series mostly up to 53.6 µM; further: nearly all actives have a fitted effect of over 60% in size
Method in brief: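 Stable Schneider cell line, Gal4 DNA-binding domain fused to ROR gamma, UAS-luciferase. Cmpd 1 hr RT → CuSO4 700 uM final → 20 hr RT → luciferase reagent 10 min → luminescence.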
Potency means the concentration at half of the fitted maximal effect.

Structure (SMILES)	Potency
Cc1ncc(CO)c(/C=N/NC(=S)Nc2ccc(F)cc2)c1O	inconclusive: 22.4 µM [inhibitor, single point]
O=C(CCNc1ccccc1)c1cccc([N+](=O)[O-])c1	inconclusive: 22.4 µM [inhibitor, single point]
CC(C)(C)c1ccc(C(=O)NC(=S)Nc2nc3c(s2)CCCC3)cc1	active: 1.78 µM
Cc1ccsc1/C=C/c1ccc2ccccc2n1	active: 10 µM
N[C@@H](C(=O)O)c1ccc(C(=O)O)c(C(=O)O)c1	inactive
CCN(CCCNC(=O)C1CCC(=O)N1Cc1ccccc1Cl)c1cccc(C)c1 (stereo unspecified)	inconclusive: 1.26 µM [activator, full curve, poor fit]
O=C(NCc1ccco1)C1Cc2ccccc2CN1C(=O)c1ccco1 (stereo unspecified)	inconclusive: 12.6 µM [activator, single point]
Cc1cc(C)cc(N(CC(=O)NCc2ccc3c(c2)OCO3)C(=O)CCC(=O)Nc2ccccn2)c1	inconclusive: 11.2 µM [activator, single point]
S=c1nc(-c2ccccc2)[nH]n1-c1ccccc1	active: 7.94 µM
O=C(Nc1ccc(Cn2cccn2)cc1)c1ccc(COc2cccc(Br)c2)cc1	inconclusive: 6.31 µM [activator, partial curve]
O=C(NCCCN1CCOCC1)c1cc(-c2ccccc2)on1	inactive
Cc1c(N(C(=O)Cc2cccs2)C2(C(=O)NC3CCCC3)CCCCC2)c(=O)n(-c2ccccc2)n1C	inconclusive: 3.55 µM [activator, partial curve]
O=C(Nc1cccc(-c2csc(Nc3cccc(C(F)(F)F)c3)n2)c1)c1ccccc1	inconclusive: 35.5 µM [activator, single point]
Cc1ccc(C(=O)NC(=S)NCCN2CCOCC2)cc1	inconclusive: 22.4 µM [inhibitor, single point]
CCOC(=O)C1(C(C)(C)CC)CC(CSc2nc3ccccc3[nH]2)OC1=O (stereo unspecified)	inconclusive: 17.8 µM [activator, single point]
O=C(c1ccccc1)N(Cc1nc2ccccc2c(=O)[nH]1)C1CCCCC1	inconclusive: 7.94 µM [inhibitor, partial curve, poor fit]
Cc1ccc(NC(=S)NCCc2ccc(Cl)cc2)c(C)c1	active: 2.82 µM
Cc1ccc2sc(N(CCCN(C)C)C(=O)CCS(=O)(=O)c3ccccc3)nc2c1C	inconclusive: 25.1 µM [inhibitor, single point]
COc1ccc(-c2nnc(SCC(=O)Nc3sc4c(c3C#N)CCCC4)n2-c2ccccc2)cc1	inconclusive: 0.708 µM [activator, single point]
O=C(COC(=O)c1ccccc1-c1nc2ccccc2s1)Nc1ccccc1C(F)(F)F	inconclusive: 8.91 µM [activator, partial curve, poor fit]
CN1CCN(CCCNC(=O)c2ccc3c(Cl)c4c(nc3c2)CCCC4)CC1	inactive
COc1ccc(-c2csc3ncnc(N4CCN(CCO)CC4)c23)cc1	inactive
Cc1ccccc1NC(=S)N(C)Cc1cn(C)c2ccccc12	inconclusive: 1.58 µM [inhibitor, single point]
COc1ccccc1N1CCN(C(=O)CSc2nc(C)c(Cc3ccccc3)c(=O)[nH]2)CC1	inconclusive: 11.2 µM [activator, partial curve]

Grouped by structure: the compounds so far with an aryl thioether with sulfur outside any ring (three)
Structure (SMILES)	Potency
CCOC(=O)C1(C(C)(C)CC)CC(CSc2nc3ccccc3[nH]2)OC1=O (stereo unspecified)	inconclusive: 17.8 µM [activator, single point]
COc1ccc(-c2nnc(SCC(=O)Nc3sc4c(c3C#N)CCCC4)n2-c2ccccc2)cc1	inconclusive: 0.708 µM [activator, single point]
COc1ccccc1N1CCN(C(=O)CSc2nc(C)c(Cc3ccccc3)c(=O)[nH]2)CC1	inconclusive: 11.2 µM [activator, partial curve]

The list goes on:

Structure (SMILES)	Potency
Cc1ccc(/C=N\NC(=O)c2cc([N+](=O)[O-])cc([N+](=O)[O-])c2)o1	active: 2.51 µM
CCCN(CCC)c1ccc(C(O)c2nnc(-c3ccccc3)o2)cc1 (stereo unspecified)	inconclusive: 15.8 µM [activator, partial curve, poor fit]
Cc1sc(NC(=S)NC(=O)CCc2ccccc2)c(C(N)=O)c1C	inactive
COc1cccc(C2C(C#N)=C(N)OC3=C2C(=O)CC(c2ccco2)C3)c1OCc1ccc(F)cc1 (stereo unspecified)	inconclusive: 12.6 µM [activator, partial curve]
O=C(N/N=C\c1ccc(Cl)cc1)c1sccc1-n1cccc1	inconclusive: 35.5 µM [inhibitor, single point]
O=C(C1=C[C@@H](c2coc3ccccc3c2=O)C[C@@H](OCCCCO)O1)N1CCOCC1	inconclusive: 35.5 µM [inhibitor, single point]
CC(=O)OCC#CCSc1nc2ccccc2n1C	active: 12.6 µM
O=C(CSc1nnnn1-c1ccc2c(c1)CCC2)Nc1ccc2c(c1)OCCO2	inconclusive: 31.6 µM [activator, single point]
S=C(Nc1ccccc1)N1CCn2c(nc3ccccc32)C1	inactive
O=c1c(-c2ccc(O)cc2)coc2cc(O[C@@H]3O[C@H](CO)[C@@H](O)[C@H](O)[C@H]3O)cc(O)c12	inactive
O=C(O)c1ccc2c3n(nc2c1)-c1ccc(Cl)cc1CO3	active: 7.08 µM
O=C(O)c1ccc2c(c1)C(=O)N([C@@H](Cc1ccc(O)cc1)C(=O)O)C2=O	active: 2 µM
COc1ccccc1NS(=O)(=O)c1ccc2oc(SC)nc2c1	inconclusive: 15.8 µM [activator, single point]
CCN(CC)c1ccc(NC(=O)c2[nH]c(C)c(C(C)=O)c2C)c(C)c1	inactive
COCCn1c(=O)c(CCc2ccccc2)nc2cnc(Oc3ccc(OC)cc3)nc21	inconclusive: 12.6 µM [activator, single point]
CCn1cc(C(=O)O)c(=O)c2cnc(N3CCN(C(=S)NC(=O)c4ccc(Cl)cc4Cl)CC3)nc21	inconclusive: 10 µM [inhibitor, partial curve, poor fit]
COCCCNC(=S)N1CCN(c2nc(C)nc3sc4c(c23)CCCC4)CC1	inconclusive: 11.2 µM [activator, single point]
Cc1ccc(C(=O)NC2CCN(C(=O)NC3CCCCC3)CC2)cc1	inconclusive: 0.355 µM [activator, full curve, poor fit]
O=C(O)c1cccc(NC(=O)c2cccc(NC(=O)C3CCCO3)c2)c1 (stereo unspecified)	inconclusive: 22.4 µM [inhibitor, single point]
O=c1cc(CN2CCN(c3ccccc3)CC2)c2c(ccc3ccccc32)o1	inconclusive: 4.47 µM [inhibitor, partial curve, poor fit]
Cc1ccc(S(=O)(=O)N2CCOCC2)cc1C(=O)O	inconclusive: 6.31 µM [inhibitor, single point]
S=C(NCc1ccco1)Nc1ccccc1Cl	active: 10 µM
CC(C)(C)c1cnnn1-c1ccc(C(=O)CCl)cc1	inconclusive: 14.1 µM [inhibitor, partial curve, poor fit]
Oc1ccc(/C=N/Nc2nc(-c3cccnc3)nc3ccccc23)c(O)c1	inconclusive: 35.5 µM [inhibitor, single point]

Copied from the entries so far for reference:
Structure (SMILES)	Potency
O=C(N/N=C\c1ccc(Cl)cc1)c1sccc1-n1cccc1	inconclusive: 35.5 µM [inhibitor, single point]
O=C(C1=C[C@@H](c2coc3ccccc3c2=O)C[C@@H](OCCCCO)O1)N1CCOCC1	inconclusive: 35.5 µM [inhibitor, single point]

Further records

Structure (SMILES)	Potency
O=C(O)CCCNC(=O)c1cccc(C(=O)NCCCC(=O)O)n1	inactive
CCOC(=O)c1ccc(NC(=O)CSc2nc3cccnc3n2C)cc1	inconclusive: 12.6 µM [activator, partial curve]
CCc1ccc(S(=O)(=O)Nc2c(C)nn(C)c2C)cc1	inconclusive: 1.58 µM [activator, partial curve]
COc1ccc(NC(=O)c2ccc(C(=O)Nc3ccc(OC)cc3OC)cc2)c(OC)c1	inactive
COc1ccccc1OCC(=O)Nc1ccc(Cl)cc1	inconclusive: 10 µM [activator, single point]
N#C/C(=C(\O)c1ccco1)c1ccccn1	inconclusive: 35.5 µM [inhibitor, single point]
O=C(Nc1ccc2c(c1)OCCO2)c1ccc(Cl)c(S(=O)(=O)N2CCOCC2)c1	inconclusive: 11.2 µM [activator, partial curve]
COc1nn(CC(=O)N2N=C(C)CC2(O)C(F)(F)F)cc1[N+](=O)[O-] (stereo unspecified)	active: 3.16 µM
Cc1ccc2[nH]c3nc(NN)nnc3c2c1	inconclusive: 0.005 µM [inhibitor, full curve, poor fit]
C[C@H](NC(=O)[C@H]1N2C(=O)c3ccccc3C2SC1(C)C)C(=O)N1CCCCC1 (stereo partly specified)	inactive
CCC(=O)N1CCc2cc(Br)cc(S(=O)(=O)N3CCCC(C(=O)NC(C)(C)C)C3)c21 (stereo unspecified)	inactive
Cc1ccc(S(=O)(=O)N(C)CCCC(=O)Nc2ccc(C)cc2C)cc1	inactive
NC(=S)N/N=C/c1ccc(-c2ccc(Cl)c(Cl)c2)o1	active: 2.51 µM
CCCCN(Cc1ccccc1)C1CCN(Cc2ccccc2)CC1	inactive
COc1cc([N+](=O)[O-])ccc1N/C=C/C(=O)c1cccs1	active: 8.91 µM
COc1ccc(/C=N/NC(=O)c2ccoc2C)cc1COc1c(C)cccc1C	active: 11.2 µM
O=C1CSC(c2ccc(Cl)cc2)N1C1CCCCC1 (stereo unspecified)	inconclusive: 35.5 µM [inhibitor, single point]
COc1c(C)cccc1C(=O)Nc1ccc(OCC(=O)N2CCOCC2)cc1C	active: 1.78 µM
Cc1ccc(C)n1-c1ccc(C(=O)NN)s1	inactive
CCCN1CCC(=O)N([C@H](CSc2ccc(C)cc2)c2ccccc2)CC1	inconclusive: 3.55 µM [activator, full curve, poor fit]
COc1ccc(N2CCN(c3ccc(S(=O)(=O)N(C(C)C)C(C)C)cn3)CC2)cc1	inconclusive: 35.5 µM [activator, single point]
O=C(Nc1cccc(Br)c1)c1cccc(OC(=S)N2CCOCC2)c1	inconclusive: 22.4 µM [activator, partial curve, poor fit]
Brc1cccc(CNc2nc3ccccc3n2CCN2CCOCC2)c1	inconclusive: 3.16 µM [inhibitor, single point]
